Experimental data published in article PMC12418683.
These are yes or no findings as the source states them, for the method shown. Binding seen in cells or lysates may run through a third protein. A yes stands for co-enrichment or nearness to the bait. Other partners may have been found. Where a sequence is shown, tags or fusion partners need not be part of it.

By UniProt entry, the sequences of proteins in these tests, tags left out.
UniProt P67870: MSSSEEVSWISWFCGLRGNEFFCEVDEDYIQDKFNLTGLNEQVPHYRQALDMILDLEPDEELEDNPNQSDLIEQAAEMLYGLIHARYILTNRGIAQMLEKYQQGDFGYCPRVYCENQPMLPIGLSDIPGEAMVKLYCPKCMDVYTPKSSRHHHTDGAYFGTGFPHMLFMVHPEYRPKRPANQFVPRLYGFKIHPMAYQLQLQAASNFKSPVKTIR
UniProt P62258: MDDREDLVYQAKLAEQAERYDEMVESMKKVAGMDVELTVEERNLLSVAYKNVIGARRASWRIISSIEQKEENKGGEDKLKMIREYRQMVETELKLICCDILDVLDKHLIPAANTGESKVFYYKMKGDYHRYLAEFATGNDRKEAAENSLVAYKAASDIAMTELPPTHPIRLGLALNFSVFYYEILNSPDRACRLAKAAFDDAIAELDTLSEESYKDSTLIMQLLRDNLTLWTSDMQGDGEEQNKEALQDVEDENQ
UniProt Q93008: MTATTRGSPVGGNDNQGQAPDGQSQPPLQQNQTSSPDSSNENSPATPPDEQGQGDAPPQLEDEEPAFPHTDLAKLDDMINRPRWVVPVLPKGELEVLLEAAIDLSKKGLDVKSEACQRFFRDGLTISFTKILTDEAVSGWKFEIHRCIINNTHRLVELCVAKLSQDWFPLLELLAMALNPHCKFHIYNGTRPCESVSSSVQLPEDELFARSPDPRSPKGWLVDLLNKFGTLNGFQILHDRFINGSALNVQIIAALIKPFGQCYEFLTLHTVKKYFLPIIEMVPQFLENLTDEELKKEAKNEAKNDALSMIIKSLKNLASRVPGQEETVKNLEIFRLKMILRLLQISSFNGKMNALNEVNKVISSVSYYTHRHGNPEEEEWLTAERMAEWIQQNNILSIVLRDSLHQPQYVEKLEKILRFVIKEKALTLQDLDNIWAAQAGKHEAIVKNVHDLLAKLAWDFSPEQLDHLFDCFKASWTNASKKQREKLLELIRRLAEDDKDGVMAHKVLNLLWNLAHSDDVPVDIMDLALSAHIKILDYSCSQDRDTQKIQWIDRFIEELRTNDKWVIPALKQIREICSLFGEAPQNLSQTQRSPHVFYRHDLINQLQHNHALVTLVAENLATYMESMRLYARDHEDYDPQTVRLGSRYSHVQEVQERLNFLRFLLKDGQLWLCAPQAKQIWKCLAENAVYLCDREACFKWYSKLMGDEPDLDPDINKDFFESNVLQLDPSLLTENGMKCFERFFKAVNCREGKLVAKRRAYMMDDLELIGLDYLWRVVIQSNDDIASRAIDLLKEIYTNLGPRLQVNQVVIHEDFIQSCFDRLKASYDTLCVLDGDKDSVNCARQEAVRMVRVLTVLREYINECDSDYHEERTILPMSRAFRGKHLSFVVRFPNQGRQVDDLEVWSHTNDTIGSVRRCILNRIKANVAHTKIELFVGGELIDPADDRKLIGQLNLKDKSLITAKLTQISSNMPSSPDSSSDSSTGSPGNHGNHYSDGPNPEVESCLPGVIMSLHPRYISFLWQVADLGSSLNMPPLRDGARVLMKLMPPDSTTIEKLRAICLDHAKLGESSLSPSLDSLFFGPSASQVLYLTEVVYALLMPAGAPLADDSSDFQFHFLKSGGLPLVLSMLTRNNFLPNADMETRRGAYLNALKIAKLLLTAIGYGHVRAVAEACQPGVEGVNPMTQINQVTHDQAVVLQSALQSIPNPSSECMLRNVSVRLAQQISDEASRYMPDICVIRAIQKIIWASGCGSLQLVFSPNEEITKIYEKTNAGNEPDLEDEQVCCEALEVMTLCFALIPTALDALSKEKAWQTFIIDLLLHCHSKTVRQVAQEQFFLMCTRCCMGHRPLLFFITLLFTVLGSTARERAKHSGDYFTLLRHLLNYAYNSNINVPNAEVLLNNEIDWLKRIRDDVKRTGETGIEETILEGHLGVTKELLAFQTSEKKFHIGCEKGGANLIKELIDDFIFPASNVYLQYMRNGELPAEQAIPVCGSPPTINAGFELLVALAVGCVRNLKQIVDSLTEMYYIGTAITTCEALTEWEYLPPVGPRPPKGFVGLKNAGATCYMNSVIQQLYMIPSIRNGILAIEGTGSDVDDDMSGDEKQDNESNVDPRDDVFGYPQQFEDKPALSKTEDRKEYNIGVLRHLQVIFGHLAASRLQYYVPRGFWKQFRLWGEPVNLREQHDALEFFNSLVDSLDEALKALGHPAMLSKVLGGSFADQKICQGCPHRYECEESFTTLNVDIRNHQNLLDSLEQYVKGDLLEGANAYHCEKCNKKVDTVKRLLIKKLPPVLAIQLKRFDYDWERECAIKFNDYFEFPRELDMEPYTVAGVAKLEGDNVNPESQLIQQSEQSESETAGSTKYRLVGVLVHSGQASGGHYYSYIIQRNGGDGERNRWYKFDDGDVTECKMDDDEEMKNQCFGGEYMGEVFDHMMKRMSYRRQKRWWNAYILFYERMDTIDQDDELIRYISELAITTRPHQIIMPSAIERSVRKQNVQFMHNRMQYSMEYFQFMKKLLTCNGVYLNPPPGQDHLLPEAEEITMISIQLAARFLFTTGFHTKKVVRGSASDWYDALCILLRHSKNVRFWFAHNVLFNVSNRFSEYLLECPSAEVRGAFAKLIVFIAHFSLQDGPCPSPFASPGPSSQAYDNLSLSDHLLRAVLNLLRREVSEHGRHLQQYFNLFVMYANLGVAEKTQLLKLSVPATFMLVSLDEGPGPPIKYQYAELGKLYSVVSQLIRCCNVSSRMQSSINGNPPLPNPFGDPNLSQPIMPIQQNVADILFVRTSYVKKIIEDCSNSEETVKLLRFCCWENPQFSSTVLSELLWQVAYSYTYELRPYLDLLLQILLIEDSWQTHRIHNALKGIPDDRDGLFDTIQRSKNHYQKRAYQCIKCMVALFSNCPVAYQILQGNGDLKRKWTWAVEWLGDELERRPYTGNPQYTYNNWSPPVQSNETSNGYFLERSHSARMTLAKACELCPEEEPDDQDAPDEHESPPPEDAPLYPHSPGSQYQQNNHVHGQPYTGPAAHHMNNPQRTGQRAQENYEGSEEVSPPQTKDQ
UniProt Q96A65: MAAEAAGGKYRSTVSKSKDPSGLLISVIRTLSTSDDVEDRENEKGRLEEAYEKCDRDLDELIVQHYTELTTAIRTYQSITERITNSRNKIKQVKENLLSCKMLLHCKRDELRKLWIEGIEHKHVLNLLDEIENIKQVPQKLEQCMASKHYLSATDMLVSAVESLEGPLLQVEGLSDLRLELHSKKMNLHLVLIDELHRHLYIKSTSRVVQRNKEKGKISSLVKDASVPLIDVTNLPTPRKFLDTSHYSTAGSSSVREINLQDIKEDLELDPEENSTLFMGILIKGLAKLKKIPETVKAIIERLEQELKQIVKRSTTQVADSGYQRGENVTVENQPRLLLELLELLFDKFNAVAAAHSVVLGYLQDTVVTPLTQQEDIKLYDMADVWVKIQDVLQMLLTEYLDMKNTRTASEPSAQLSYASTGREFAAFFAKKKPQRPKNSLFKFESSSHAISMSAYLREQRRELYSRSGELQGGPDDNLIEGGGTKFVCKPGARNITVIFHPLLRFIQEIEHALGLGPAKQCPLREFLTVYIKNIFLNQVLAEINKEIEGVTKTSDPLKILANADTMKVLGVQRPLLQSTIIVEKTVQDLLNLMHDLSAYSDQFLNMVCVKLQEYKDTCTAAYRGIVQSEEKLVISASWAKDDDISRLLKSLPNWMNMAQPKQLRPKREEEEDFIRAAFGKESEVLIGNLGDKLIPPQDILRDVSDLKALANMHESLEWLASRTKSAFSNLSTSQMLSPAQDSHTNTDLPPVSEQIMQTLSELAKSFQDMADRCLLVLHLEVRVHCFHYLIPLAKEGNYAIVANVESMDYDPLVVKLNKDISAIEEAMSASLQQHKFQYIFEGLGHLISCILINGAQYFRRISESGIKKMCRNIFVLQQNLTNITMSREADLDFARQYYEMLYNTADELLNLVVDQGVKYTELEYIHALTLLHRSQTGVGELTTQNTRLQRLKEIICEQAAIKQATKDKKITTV
UniProt O60884: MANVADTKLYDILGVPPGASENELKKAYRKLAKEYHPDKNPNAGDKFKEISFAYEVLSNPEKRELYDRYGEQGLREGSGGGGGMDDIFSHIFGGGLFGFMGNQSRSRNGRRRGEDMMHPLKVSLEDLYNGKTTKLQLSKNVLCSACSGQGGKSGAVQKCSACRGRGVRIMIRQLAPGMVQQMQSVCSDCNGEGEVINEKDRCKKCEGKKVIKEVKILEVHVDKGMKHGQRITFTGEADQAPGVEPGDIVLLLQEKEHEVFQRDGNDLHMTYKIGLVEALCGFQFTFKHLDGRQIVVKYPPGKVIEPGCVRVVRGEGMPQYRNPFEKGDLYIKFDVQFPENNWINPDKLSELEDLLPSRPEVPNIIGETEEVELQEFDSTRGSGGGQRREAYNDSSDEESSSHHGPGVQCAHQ
UniProt Q9Y265: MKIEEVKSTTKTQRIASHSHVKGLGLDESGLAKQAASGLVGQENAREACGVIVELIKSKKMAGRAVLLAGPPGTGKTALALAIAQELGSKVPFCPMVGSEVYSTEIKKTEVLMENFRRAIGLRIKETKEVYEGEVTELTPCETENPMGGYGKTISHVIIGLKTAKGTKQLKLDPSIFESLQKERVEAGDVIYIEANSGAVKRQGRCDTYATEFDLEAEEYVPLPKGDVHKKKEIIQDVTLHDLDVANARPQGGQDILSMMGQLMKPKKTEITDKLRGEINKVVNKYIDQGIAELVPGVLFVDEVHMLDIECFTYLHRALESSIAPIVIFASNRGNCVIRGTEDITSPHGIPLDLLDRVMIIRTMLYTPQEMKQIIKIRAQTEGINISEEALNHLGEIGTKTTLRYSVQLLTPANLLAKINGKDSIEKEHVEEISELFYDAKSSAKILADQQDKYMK

T1: AGBL5-eGFP (human) (UniProt Q8NDL9)
T1 sequence: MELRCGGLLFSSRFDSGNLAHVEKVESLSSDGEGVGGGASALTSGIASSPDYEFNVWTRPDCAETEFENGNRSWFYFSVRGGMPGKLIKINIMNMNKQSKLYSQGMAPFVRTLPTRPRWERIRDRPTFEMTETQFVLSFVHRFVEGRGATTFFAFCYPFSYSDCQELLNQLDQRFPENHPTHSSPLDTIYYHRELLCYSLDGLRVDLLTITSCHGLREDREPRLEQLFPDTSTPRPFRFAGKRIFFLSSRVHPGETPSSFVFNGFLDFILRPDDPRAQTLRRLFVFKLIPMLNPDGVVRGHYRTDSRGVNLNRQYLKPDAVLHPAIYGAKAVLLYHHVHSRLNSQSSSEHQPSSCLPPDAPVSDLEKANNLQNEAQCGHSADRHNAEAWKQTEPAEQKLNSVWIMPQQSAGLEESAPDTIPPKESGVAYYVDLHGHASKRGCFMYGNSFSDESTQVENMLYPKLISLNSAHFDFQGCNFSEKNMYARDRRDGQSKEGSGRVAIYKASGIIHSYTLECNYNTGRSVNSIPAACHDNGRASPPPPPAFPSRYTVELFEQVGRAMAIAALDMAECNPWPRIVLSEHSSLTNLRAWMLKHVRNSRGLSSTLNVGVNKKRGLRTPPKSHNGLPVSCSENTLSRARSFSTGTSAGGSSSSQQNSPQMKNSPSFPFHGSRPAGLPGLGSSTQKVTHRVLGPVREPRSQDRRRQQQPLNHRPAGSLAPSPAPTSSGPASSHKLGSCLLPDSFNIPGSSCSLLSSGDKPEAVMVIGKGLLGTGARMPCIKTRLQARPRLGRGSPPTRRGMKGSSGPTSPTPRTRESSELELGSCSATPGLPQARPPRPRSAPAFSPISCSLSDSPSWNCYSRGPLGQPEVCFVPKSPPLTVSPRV


Biological target: T1, AGBL5-eGFP (human)
Experiment: affinity purification with mass spectrometry; GFP-Trap agarose beads (eGFP nanobody) on lysates of ARPE19 WT cells transiently expressing AGBL5-eGFP; on-bead digestion, LC-MS/MS (Orbitrap Fusion Lumos, DDA); control: cells transfected with pmaxGFP; 6 replicates of each; MaxLFQ, threshold log2 FC > …

Molecule	binding
SQSTM1 (from UniProt Q13501 1-440)	binds
CSNK2B (from UniProt P67870 1-215)	binds
YWHAE (from UniProt P62258 1-255)	binds
SLIRP (human (endogenous in ARPE19))	binds
ubiquitin specific peptidase 9 X-linked (from UniProt Q93008 1-2554) (enzyme)	binds
exocyst complex component 4 (from UniProt Q96A65 1-974)	binds
DNAJA2 (from UniProt O60884 1-412)	binds
RUVBL1 (from UniProt Q9Y265 1-456)	binds
Polycomb Group Ring Finger 3 (protein, UniProt Q3KNV8 1-242) MLTRKIKLWDINAHITCRLCSGYLIDATTVTECLHTFCRSCLVKYLEENNTCPTCRIVIHQSHPLQYIGHDRTMQDIVYKLVPGLQEAEMRKQREFYHKLGMEVPGDIKGETCSAKQHLDSHRNGETKADDSSNKEAAEEKPEEDNDYHRSDEQVSICLECNSSKLRGLKRKWIRCSAQATVLHLKKFIAKKLNLSSFNELDILCNEEILGKDHTLKFVVVTRWRFKKAPLLLHYRPKMDLL	binds
YWHAG (protein, UniProt P61981 1-247) MVDREQLVQKARLAEQAERYDDMAAAMKNVTELNEPLSNEERNLLSVAYKNVVGARRSSWRVISSIEQKTSADGNEKKIEMVRAYREKIEKELEAVCQDVLSLLDNYLIKNCSETQYESKVFYLKMKGDYYRYLAEVATGEKRATVVESSEKAYSEAHEISKEHMQPTHPIRLGLALNYSVFYYEIQNAPEQACHLAKTAFDDAIAELDTLNEDSYKDSTLIMQLLRDNLTLWTSDQQDDDGGEGNN	binds
YWHAQ (protein, UniProt P27348 1-245) MEKTELIQKAKLAEQAERYDDMATCMKAVTEQGAELSNEERNLLSVAYKNVVGGRRSAWRVISSIEQKTDTSDKKLQLIKDYREKVESELRSICTTVLELLDKYLIANATNPESKVFYLKMKGDYFRYLAEVACGDDRKQTIDNSQGAYQEAFDISKKEMQPTHPIRLGLALNFSVFYYEILNNPELACTLAKTAFDEAIAELDTLNEDSYKDSTLIMQLLRDNLTLWTSDSAGEECDAAEGAEN	binds
